According to paper PMC11993918, “Flipped binding modes for the same agonist in closely related neuropeptide-gated ion channels” (Biophysical Journal, 2025):

Tested on: M. fuliginosus FaNaC1
Test: Two-electrode voltage clamp of oocytes expressing M. fuliginosus FaNaC1
Format: cell-based, Malacoceros fuliginosus
Conditions: voltage ramps -80 mV to 80 mV, n = 4
From the text: A. kurodai FaNaC (NCBI GenBank: AB206707.1) and M. fuliginosus FaNaC1 (NCBI GenBank: ON156825.1) cDNAs in tailored pSP64 plasmid vectors including Xenopus laevis UTRs and poly(A) sequences have been described at length previously ([9],[16]). A. kurodai FaNaC F188Y, F188tag (amber stop codon), F453Y, and F453tag mutants were generated by site-directed mutagenesis as detailed in ([17]) with custom primers (Merck) and PCR with Phusion High-Fidelity DNA polymerase (Thermo Fisher). All coding sequences were confirmed by Sanger sequencing (Genewiz). Plasmid DNA was linearized by digesting with EcoRI (Thermo Fisher) and purified with the DNA Clean & Concentrator Kit (Zymo). mRNA was then transcribed using the mMESSAGE mMACHINE SP6 Transcription Kit (Thermo Fisher) and purified with the RNeasy Mini Kit (Qiagen). […]
Two-electrode voltage clamp experiments were performed 24–36 h after injection. […] Data were recorded at 1000 Hz and filtered at 100–200 Hz. […]
Current amplitude was measured in Clampfit 11.1 (Molecular Devices), and subsequent data analyses were performed in Prism v9 (GraphPad Software). […] This yielded n = 3 oocytes for responses to different concentrations, against which a single curve was fitted and half-maximal effective concentration (EC50) was calculated. […]

For H-Phe-Met-Arg-Phe-NH2 [FMRFa], the “Erev of FMRFa-gated current” value (extracellular 140Na,1mMCa) was 38 mV and the “Erev of FMRFa-gated current” value (extracellular ~1Na,10Ca) was -2 mV.

No dose or concentration is given here for some results.
